Measurements taken from paper PMC11188183.
No constants are given. Whether binding was seen depends on the method and setting. Binding seen in cells or lysates may run through a third protein. Here binding means that the protein was enriched with, or labelled near, the bait; the list need not be complete.

The chains behind the UniProt entries cited, without tags or fusion partners.
UniProt P68104: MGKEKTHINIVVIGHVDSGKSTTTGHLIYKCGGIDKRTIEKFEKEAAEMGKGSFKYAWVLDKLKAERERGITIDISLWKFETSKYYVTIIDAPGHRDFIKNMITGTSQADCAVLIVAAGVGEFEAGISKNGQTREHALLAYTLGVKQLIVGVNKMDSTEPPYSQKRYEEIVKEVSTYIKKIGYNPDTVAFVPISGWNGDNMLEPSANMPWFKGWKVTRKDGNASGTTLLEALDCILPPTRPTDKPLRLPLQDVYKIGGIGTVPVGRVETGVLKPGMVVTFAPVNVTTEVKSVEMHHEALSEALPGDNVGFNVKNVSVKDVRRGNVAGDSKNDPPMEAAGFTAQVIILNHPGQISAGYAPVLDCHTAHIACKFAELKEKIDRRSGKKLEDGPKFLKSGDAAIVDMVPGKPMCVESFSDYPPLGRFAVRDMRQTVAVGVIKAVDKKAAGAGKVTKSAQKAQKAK
UniProt Q05639: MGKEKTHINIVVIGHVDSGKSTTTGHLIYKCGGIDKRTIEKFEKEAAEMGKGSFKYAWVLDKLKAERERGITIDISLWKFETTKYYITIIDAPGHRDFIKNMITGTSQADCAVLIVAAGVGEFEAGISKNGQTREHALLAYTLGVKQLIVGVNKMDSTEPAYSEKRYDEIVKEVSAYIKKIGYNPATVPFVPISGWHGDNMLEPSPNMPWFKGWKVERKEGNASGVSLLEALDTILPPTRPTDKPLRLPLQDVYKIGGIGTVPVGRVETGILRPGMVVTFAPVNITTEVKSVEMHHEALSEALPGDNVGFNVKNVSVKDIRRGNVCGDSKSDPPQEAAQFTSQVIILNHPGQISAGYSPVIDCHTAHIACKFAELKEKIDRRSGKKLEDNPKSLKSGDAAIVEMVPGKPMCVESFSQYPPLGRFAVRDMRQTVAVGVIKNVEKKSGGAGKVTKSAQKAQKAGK
UniProt Q5VTE0: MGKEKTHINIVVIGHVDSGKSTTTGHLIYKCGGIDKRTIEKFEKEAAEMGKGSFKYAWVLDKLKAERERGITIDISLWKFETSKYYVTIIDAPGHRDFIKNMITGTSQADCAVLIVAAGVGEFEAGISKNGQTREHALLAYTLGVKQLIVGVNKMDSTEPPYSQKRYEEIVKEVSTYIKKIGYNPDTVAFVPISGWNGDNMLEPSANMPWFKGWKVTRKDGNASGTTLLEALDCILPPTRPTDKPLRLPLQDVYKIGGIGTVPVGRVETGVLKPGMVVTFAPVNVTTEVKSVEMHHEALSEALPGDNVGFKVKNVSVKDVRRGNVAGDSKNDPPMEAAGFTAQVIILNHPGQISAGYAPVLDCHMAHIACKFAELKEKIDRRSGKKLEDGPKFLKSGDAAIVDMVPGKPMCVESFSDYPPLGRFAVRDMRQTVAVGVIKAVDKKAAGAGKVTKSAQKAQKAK
UniProt P0C0S5: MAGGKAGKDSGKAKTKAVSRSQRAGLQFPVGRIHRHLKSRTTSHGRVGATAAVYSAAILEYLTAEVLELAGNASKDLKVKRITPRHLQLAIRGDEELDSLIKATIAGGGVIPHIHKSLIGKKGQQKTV
UniProt Q02539: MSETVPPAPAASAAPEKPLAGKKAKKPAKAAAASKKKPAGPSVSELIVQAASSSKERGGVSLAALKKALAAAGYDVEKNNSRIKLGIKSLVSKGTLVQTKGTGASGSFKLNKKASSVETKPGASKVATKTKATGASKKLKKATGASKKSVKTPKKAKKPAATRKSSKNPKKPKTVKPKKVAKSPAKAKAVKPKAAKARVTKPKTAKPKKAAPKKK
UniProt P16403: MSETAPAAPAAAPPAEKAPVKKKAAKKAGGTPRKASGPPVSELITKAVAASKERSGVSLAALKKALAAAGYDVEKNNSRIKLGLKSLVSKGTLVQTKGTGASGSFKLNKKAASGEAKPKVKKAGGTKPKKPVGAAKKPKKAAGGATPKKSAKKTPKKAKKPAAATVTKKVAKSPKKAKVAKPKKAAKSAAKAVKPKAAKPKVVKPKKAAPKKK
UniProt Q04695: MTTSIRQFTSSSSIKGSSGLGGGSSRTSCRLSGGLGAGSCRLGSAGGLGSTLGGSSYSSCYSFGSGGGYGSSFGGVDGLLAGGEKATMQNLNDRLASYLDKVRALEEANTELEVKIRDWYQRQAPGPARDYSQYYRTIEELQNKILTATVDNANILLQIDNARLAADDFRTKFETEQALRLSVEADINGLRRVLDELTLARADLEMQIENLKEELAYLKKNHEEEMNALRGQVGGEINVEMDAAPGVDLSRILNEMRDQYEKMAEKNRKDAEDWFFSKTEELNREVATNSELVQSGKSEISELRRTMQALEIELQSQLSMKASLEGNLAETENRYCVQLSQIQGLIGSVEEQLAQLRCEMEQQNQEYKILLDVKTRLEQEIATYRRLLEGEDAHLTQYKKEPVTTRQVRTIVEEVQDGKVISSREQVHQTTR
UniProt P08727: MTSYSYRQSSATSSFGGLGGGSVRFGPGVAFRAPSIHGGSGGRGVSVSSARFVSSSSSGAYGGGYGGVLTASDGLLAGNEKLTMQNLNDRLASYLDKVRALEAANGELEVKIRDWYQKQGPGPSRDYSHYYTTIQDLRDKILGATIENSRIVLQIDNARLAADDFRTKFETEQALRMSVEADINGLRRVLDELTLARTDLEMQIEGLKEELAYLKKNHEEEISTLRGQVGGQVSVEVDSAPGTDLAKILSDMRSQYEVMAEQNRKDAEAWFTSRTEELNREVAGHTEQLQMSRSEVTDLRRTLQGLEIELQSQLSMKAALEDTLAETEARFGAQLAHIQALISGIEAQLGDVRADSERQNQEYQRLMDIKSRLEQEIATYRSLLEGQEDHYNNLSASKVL
UniProt P13647: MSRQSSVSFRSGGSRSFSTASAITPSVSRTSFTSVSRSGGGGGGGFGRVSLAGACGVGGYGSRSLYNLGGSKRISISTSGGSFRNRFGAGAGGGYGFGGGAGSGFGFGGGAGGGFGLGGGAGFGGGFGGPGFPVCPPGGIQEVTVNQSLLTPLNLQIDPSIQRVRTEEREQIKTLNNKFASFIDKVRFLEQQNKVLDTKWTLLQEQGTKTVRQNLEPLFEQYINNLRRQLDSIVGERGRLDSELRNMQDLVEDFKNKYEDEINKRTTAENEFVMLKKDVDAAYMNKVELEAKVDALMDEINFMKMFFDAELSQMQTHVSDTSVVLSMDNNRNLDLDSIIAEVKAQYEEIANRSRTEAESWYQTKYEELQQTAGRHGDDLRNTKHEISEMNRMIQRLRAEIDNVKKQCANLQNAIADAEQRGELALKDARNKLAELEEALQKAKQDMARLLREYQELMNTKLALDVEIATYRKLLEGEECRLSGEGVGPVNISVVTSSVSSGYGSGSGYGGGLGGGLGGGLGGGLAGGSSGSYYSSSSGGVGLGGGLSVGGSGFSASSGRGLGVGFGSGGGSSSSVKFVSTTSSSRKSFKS
UniProt P02538: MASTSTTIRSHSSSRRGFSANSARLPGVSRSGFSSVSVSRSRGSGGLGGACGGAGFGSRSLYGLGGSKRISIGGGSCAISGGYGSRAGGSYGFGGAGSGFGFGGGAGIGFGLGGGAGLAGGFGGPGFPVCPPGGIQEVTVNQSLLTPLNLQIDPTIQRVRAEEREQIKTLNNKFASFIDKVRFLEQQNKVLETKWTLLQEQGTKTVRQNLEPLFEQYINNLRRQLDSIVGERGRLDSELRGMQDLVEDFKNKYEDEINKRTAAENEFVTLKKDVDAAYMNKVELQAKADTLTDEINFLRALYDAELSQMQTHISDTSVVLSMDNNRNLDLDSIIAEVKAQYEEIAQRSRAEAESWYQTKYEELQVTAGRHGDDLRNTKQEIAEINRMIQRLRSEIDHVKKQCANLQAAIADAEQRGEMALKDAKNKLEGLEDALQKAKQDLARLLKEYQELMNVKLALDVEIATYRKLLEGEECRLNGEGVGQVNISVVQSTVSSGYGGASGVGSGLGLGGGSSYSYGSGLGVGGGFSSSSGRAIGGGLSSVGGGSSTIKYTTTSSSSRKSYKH
UniProt P48668: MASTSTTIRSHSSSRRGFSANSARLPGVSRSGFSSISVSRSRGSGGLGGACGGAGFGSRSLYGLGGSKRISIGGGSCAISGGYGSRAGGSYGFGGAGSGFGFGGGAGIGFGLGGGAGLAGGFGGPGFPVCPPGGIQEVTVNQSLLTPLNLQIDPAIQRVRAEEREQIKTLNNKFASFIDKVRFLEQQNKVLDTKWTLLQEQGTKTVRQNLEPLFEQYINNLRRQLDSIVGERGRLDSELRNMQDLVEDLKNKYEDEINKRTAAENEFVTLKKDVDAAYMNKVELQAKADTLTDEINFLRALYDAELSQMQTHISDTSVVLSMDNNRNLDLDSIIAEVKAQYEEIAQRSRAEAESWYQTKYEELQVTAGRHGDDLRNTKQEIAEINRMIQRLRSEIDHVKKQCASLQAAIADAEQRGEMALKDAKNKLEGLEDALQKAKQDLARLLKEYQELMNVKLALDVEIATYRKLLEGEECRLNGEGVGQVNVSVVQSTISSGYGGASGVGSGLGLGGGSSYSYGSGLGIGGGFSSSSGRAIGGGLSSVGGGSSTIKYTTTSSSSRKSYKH
UniProt P60660: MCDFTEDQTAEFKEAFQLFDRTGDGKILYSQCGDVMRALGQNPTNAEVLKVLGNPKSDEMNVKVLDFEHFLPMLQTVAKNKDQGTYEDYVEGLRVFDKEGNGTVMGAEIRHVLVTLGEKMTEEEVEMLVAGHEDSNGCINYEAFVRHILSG
UniProt P06748: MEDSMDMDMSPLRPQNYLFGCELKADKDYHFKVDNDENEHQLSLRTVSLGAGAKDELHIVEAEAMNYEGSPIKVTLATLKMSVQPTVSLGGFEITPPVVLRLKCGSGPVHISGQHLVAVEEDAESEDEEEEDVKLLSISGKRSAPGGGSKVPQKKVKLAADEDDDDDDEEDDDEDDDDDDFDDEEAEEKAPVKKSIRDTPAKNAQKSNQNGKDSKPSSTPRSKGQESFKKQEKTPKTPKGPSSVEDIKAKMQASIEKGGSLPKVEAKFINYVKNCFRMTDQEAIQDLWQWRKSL
UniProt Q6NVV1: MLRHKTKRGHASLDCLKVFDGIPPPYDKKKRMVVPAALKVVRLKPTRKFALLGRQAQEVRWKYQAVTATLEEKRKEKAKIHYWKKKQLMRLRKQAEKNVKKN
UniProt Q9Y2J0: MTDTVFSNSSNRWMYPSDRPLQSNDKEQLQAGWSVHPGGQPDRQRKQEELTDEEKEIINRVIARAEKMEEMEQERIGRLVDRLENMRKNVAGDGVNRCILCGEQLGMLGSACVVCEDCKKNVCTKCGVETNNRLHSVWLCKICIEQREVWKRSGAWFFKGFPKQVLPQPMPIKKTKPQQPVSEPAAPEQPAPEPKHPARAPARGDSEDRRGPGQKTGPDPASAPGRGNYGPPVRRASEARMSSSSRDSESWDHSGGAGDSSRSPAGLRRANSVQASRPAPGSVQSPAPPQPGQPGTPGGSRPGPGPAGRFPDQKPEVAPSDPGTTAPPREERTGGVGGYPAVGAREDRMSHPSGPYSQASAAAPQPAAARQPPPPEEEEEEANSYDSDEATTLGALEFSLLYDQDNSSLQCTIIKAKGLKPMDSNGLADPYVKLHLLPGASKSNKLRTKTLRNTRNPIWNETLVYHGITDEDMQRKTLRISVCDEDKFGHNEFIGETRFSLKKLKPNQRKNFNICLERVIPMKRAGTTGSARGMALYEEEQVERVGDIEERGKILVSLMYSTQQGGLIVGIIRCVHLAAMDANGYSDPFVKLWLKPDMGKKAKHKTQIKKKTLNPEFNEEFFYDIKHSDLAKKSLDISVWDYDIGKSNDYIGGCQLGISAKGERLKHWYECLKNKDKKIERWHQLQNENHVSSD

T1: kinesin family member C1 (KIFC1) (human) (UniProt Q9BW19)
T1 sequence: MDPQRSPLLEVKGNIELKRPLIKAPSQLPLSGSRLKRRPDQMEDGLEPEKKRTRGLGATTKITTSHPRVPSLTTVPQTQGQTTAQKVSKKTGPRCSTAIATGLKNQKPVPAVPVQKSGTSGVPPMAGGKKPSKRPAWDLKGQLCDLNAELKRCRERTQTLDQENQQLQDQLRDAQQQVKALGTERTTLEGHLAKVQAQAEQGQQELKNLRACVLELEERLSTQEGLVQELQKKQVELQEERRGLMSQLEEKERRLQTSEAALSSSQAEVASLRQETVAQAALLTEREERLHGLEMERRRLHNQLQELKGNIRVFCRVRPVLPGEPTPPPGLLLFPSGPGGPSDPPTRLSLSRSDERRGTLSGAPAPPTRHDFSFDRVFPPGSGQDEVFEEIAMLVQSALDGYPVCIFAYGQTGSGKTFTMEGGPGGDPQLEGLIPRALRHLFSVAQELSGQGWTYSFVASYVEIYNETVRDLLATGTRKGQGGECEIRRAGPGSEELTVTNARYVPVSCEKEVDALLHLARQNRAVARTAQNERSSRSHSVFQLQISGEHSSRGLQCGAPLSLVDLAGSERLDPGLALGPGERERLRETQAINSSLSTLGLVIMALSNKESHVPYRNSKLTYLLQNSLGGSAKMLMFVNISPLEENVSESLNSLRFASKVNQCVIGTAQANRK


Legend:
[1] = biological target: T1, kinesin family member C1 (KIFC1) (human); assay: affinity purification with mass spectrometry; anti-KIFC1 antibody (Abcam ab172620) crosslinked to magnetic beads; nuclear lysate of BT-549 (EA) cells; LC-MS/MS of the eluate
[2] = biological target: T1, kinesin family member C1 (KIFC1) (human); assay: affinity purification with mass spectrometry; anti-KIFC1 antibody (Abcam ab172620) crosslinked to magnetic beads; nuclear lysate of MDA-MB-231 (EA) cells; LC-MS/MS of the eluate
[3] = biological target: T1, kinesin family member C1 (KIFC1) (human); assay: affinity purification with mass spectrometry; anti-KIFC1 antibody (Abcam ab172620) crosslinked to magnetic beads; nuclear lysate of HCC1806 (AA) cells; LC-MS/MS of the eluate
[4] = biological target: T1, kinesin family member C1 (KIFC1) (human); assay: affinity purification with mass spectrometry; anti-KIFC1 antibody (Abcam ab172620) crosslinked to magnetic beads; nuclear lysate of MDA-MB-468 (AA) cells; LC-MS/MS of the eluate

Molecule | binding [1] | binding [2] | other results
EF1A1_HUMAN (from UniProt P68104 1-462) | binds |  | 
EF1A2_HUMAN (from UniProt Q05639 1-463) | binds |  | 
EF1A3_HUMAN (from UniProt Q5VTE0 1-462) | binds |  | 
H2AZ_HUMAN (from UniProt P0C0S5 1-128) |  | binds | 
H11_HUMAN (from UniProt Q02539 1-215) | binds |  | 
H12_HUMAN (from UniProt P16403 1-213) | binds | binds | 
K1C17_HUMAN (from UniProt Q04695 1-432) | binds |  | binding [3]: binds
K1C19_HUMAN (from UniProt P08727 1-400) | binds |  | 
K2C5_HUMAN (from UniProt P13647 1-590) |  | binds | binding [3]: binds
K2C6A_HUMAN (from UniProt P02538 1-564) |  | binds | binding [3]: binds
K2C6C_HUMAN (from UniProt P48668 1-564) |  | binds | binding [3]: binds
MYL6_HUMAN (from UniProt P60660 1-151) |  | binds | 
NPM_HUMAN (from UniProt P06748 1-294) |  | binds | 
R13P3_HUMAN (from UniProt Q6NVV1 1-102) | binds |  | 
RP3A_HUMAN (from UniProt Q9Y2J0 1-694) | binds |  | 
K1C9_HUMAN (protein, UniProt P35527 1-623) MSCRQFSSSYLSRSGGGGGGGLGSGGSIRSSYSRFSSSGGGGGGGRFSSSSGYGGGSSRVCGRGGGGSFGYSYGGGSGGGFSASSLGGGFGGGSRGFGGASGGGYSSSGGFGGGFGGGSGGGFGGGYGSGFGGFGGFGGGAGGGDGGILTANEKSTMQELNSRLASYLDKVQALEEANNDLENKIQDWYDKKGPAAIQKNYSPYYNTIDDLKDQIVDLTVGNNKTLLDIDNTRMTLDDFRIKFEMEQNLRQGVDADINGLRQVLDNLTMEKSDLEMQYETLQEELMALKKNHKEEMSQLTGQNSGDVNVEINVAPGKDLTKTLNDMRQEYEQLIAKNRKDIENQYETQITQIEHEVSSSGQEVQSSAKEVTQLRHGVQELEIELQSQLSKKAALEKSLEDTKNRYCGQLQMIQEQISNLEAQITDVRQEIECQNQEYSLLLSIKMRLEKEIETYHNLLEGGQEDFESSGAGKIGLGGRGGSGGSYGRGSRGGSGGSYGGGGSGGGYGGGSGSRGGSGGSYGGGSGSGGGSGGGYGGGSGGGHSGGSGGGHSGGSGGNYGGGSGSGGGSGGGYGGGSGSRGGSGGSHGGGSGFGGESGGSYGGGEEASGSGGGYGGGSGKSSHS |  | binds | binding [3]: binds
PIP_HUMAN (protein, UniProt P12273 29-146) QDNTRKIIIKNFDIPKSVRPNDEVTAVLAVQTELKECMVVKTYLISSIPLQGAFNYKYTACLCDDNPKTFYWDFYTNRTVQIAAVVDVIRELGICPDDAAVIPIKNNRFYTIEILKVE |  | binds | 
AROS_HUMAN (protein, UniProt Q86WX3 1-136) MSAALLRRGLELLAASEAPRDPPGQAKPRGAPVKRPRKTKAIQAQKLRNSAKGKVPKSALDEYRKRECRDHLRVNLKFLTRTRSTVAESVSQQILRQNRGRKACDRPVAKTKKKKAEGTVFTEEDFQKFQQEYFGS | binds |  | 
NR2C1_HUMAN (protein, UniProt P13056 1-603) MATIEEIAHQIIEQQMGEIVTEQQTGQKIQIVTALDHNTQGKQFILTNHDGSTPSKVILARQDSTPGKVFLTTPDAAGVNQLFFTTPDLSAQHLQLLTDNSPDQGPNKVFDLCVVCGDKASGRHYGAVTCEGCKGFFKRSIRKNLVYSCRGSKDCIINKHHRNRCQYCRLQRCIAFGMKQDSVQCERKPIEVSREKSSNCAASTEKIYIRKDLRSPLTATPTFVTDSESTRSTGLLDSGMFMNIHPSGVKTESAVLMTSDKAESCQGDLSTLANVVTSLANLGKTKDLSQNSNEMSMIESLSNDDTSLCEFQEMQTNGDVSRAFDTLAKALNPGESTACQSSVAGMEGSVHLITGDSSINYTEKEGPLLSDSHVAFRLTMPSPMPEYLNVHYIGESASRLLFLSMHWALSIPSFQALGQENSISLVKAYWNELFTLGLAQCWQVMNVATILATFVNCLHNSLQQDKMSTERRKLLMEHIFKLQEFCNSMVKLCIDGYEYAYLKAIVLFSPDHPSLENMEQIEKFQEKAYVEFQDYITKTYPDDTYRLSRLLLRLPALRLMNATITEELFFKGLIGNIRIDSVIPHILKMEPADYNSQIIGHSI | binds |  | 
H1T_HUMAN (protein, UniProt P22492 1-207) MSETVPAASASAGVAAMEKLPTKKRGRKPAGLISASRKVPNLSVSKLITEALSVSQERVGMSLVALKKALAAAGYDVEKNNSRIKLSLKSLVNKGILVQTRGTGASGSFKLSKKVIPKSTRSKAKKSVSAKTKKLVLSRDSKSPKTAKTNKRAKKPRATTPKTVRSGRKAKGAKGKQQQKSPVKARASKSKLTQHHEVNVRKATSKK | binds |  | 
LMBD2_HUMAN (protein, UniProt Q68DH5 1-695) MSGAALGLEIVFVFFLALFLLHRYGDFKKQHRLVIIGTLLAWYLCFLIVFILPLDVSTTIYNRCKHAAANSSPPENSNITGLYATANPVPSQHPCFKPWSYIPDGIMPIFWRVVYWTSQFLTWILLPFMQSYARSGGFSITGKIKTALIENAIYYGTYLLIFGAFLIYVAVNPHLHLEWNQLQTIGIAAANTWGLFLLVLLLGYGLVEIPRSYWNGAKRGYLLMKTYFKAAKLMTEKADAEENLEDAMEEVRKVNESIKYNHPLRKCVDTILKKCPTEYQEKMGRNMDDYEDFDEKHSIYPSEKSLVKLHKQVIYSVQRHRRTQVQWQILLEQAFYLEDVAKNETSATHQFVHTFQSPEPENRFIQYFYNPTFEWYWECLLRPWFYKILAVVLSIFSVIVVWSECTFFSTTPVLSLFAVFIQLAEKTYNYIYIEIACFLSIFFLSICVYSTVFRIRVFNYYYLASHHQTDAYSLLFSGMLFCRLTPPLCLNFLGLTHMDSSISHKNTQPTAYTSIMGSMKVLSFIADGFYIYYPMLVVILCIATYFSLGTRCLNLLGFQQFMGDDDMTSDLVNEGKELIRKEKRKRQRQEEGENRRREWKERYGHNREDSTRNRNIHTDPKESNFSDVNTNRSAFKYTRANNRTERDRIELLQDAEPLDFNAETFTDDPLESESGRYQPGGRYLSMSRSDIFNDV | binds |  | 
ASB2_HUMAN (protein, UniProt Q96Q27 1-635) MATQISTRGSQCTIGQEEYSLYSSLSEDELVQMAIEQSLADKTRGPTTAEATASACTNRQPAHFYPWTRSTAPPESSPARAPMGLFQGVMQKYSSSLFKTSQLAPADPLIKAIKDGDEEALKTMIKEGKNLAEPNKEGWLPLHEAAYYGQVGCLKVLQRAYPGTIDQRTLQEETAVYLATCRGHLDCLLSLLQAGAEPDISNKSRETPLYKACERKNAEAVKILVQHNADTNHRCNRGWTALHESVSRNDLEVMQILVSGGAKVESKNAYGITPLFVAAQSGQLEALRFLAKYGADINTQASDNASALYEACKNEHEEVVEFLLSQGADANKTNKDGLLPLHIASKKGNYRIVQMLLPVTSRTRIRRSGVSPLHLAAERNHDEVLEALLSARFDVNTPLAPERARLYEDRRSSALYFAVVNNNVYATELLLQHGADPNRDVISPLLVAIRHGCLRTMQLLLDHGANIDAYIATHPTAFPATIMFAMKCLSLLKFLMDLGCDGEPCFSCLYGNGPHPPAPQPSSRFNDAPAADKEPSVVQFCEFVSAPEVSRWAGPIIDVLLDYVGNVQLCSRLKEHIDSFEDWAVIKEKAEPPRPLAHLCRLRVRKAIGKYRIKLLDTLPLPGRLIRYLKYENTQ | binds |  | 
MYO1D_HUMAN (protein, UniProt O94832 1-1006) MAEQESLEFGKADFVLMDTVSMPEFMANLRLRFEKGRIYTFIGEVVVSVNPYKLLNIYGRDTIEQYKGRELYERPPHLFAIADAAYKAMKRRSKDTCIVISGESGAGKTEASKYIMQYIAAITNPSQRAEVERVKNMLLKSNCVLEAFGNAKTNRNDNSSRFGKYMDINFDFKGDPIGGHINNYLLEKSRVIVQQPGERSFHSFYQLLQGGSEQMLRSLHLQKSLSSYNYIHVGAQLKSSINDAAEFRVVADAMKVIGFKPEEIQTVYKILAAILHLGNLKFVVDGDTPLIENGKVVSIIAELLSTKTDMVEKALLYRTVATGRDIIDKQHTEQEASYGRDAFAKAIYERLFCWIVTRINDIIEVKNYDTTIHGKNTVIGVLDIYGFEIFDNNSFEQFCINYCNEKLQQLFIQLVLKQEQEEYQREGIPWKHIDYFNNQIIVDLVEQQHKGIIAILDDACMNVGKVTDEMFLEALNSKLGKHAHFSSRKLCASDKILEFDRDFRIRHYAGDVVYSVIGFIDKNKDTLFQDFKRLMYNSSNPVLKNMWPEGKLSITEVTKRPLTAATLFKNSMIALVDNLASKEPYYVRCIKPNDKKSPQIFDDERCRHQVEYLGLLENVRVRRAGFAFRQTYEKFLHRYKMISEFTWPNHDLPSDKEAVKKLIERCGFQDDVAYGKTKIFIRTPRTLFTLEELRAQMLIRIVLFLQKVWRGTLARMRYKRTKAALTIIRYYRRYKVKSYIHEVARRFHGVKTMRDYGKHVKWPSPPKVLRRFEEALQTIFNRWRASQLIKSIPASDLPQVRAKVAAVEMLKGQRADLGLQRAWEGNYLASKPDTPQTSGTFVPVANELKRKDKYMNVLFSCHVRKVNRFSKVEDRAIFVTDRHLYKMDPTKQYKVMKTIPLYNLTGLSVSNGKDQLVVFHTKDNKDLIVCLFSKQPTHESRIGELVGVLVNHFKSEKRHLQVNVTNPVQCSLHGKKCTVSVETRLNQPQPDFTKNRSGFILSVPGN |  |  | binding [3]: binds; binding [4]: binds
